From the supplement of paper PMC10849652
The list shows a part of the results.

Protein sequences, listed by entry. Tags and fused reporters are not part of them. Lines headed by an entry give the natural chain unless they say otherwise; changes in a name come on top.
UniProt Q14CX7, whole entry, looked up: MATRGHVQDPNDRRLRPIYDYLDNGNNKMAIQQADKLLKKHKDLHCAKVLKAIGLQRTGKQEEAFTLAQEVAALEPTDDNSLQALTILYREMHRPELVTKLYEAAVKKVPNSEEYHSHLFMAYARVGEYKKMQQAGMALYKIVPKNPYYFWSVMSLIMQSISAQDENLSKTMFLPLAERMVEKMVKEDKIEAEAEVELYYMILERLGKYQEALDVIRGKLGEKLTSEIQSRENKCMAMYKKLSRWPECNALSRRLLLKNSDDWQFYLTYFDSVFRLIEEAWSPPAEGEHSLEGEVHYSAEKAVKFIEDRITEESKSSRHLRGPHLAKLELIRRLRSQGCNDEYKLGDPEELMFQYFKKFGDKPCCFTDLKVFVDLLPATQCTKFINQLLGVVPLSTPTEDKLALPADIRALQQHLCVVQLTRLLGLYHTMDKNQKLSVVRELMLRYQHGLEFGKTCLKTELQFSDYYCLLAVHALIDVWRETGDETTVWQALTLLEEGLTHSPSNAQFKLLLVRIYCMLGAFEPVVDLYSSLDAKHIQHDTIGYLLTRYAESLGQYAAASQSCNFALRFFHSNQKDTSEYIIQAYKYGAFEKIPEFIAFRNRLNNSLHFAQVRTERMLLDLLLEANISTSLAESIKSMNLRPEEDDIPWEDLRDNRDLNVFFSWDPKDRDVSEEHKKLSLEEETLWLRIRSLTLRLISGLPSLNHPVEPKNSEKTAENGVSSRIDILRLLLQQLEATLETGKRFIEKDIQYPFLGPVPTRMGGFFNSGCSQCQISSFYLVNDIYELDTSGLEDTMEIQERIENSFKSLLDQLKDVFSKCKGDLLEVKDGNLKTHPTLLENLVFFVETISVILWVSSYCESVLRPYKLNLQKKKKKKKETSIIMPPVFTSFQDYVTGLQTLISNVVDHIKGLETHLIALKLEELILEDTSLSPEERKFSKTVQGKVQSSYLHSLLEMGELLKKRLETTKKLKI
UniProt P43490: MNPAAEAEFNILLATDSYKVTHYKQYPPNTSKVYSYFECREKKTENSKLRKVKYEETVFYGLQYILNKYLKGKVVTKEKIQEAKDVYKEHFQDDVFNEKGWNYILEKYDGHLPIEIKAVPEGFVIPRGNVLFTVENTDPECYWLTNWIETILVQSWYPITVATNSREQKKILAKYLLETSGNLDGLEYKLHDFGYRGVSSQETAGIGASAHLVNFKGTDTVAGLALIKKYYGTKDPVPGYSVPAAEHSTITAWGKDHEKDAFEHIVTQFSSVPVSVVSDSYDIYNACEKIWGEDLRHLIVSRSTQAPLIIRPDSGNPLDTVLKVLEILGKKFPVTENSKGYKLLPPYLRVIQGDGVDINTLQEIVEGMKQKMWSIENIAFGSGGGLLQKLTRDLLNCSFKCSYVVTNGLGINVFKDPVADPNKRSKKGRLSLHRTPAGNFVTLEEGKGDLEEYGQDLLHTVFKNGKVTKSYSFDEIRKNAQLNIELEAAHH
UniProt P55209: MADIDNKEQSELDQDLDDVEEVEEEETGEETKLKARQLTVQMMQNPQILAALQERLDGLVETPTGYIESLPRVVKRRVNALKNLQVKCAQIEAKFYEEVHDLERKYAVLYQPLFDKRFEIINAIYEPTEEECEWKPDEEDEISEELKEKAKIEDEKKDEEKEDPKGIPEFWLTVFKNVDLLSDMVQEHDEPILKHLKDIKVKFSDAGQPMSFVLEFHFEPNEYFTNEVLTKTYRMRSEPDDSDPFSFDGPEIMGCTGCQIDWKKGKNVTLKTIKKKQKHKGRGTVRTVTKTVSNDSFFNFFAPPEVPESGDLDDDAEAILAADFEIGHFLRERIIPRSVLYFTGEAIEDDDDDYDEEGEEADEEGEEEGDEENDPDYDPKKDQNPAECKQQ
UniProt Q15021, whole entry, looked up: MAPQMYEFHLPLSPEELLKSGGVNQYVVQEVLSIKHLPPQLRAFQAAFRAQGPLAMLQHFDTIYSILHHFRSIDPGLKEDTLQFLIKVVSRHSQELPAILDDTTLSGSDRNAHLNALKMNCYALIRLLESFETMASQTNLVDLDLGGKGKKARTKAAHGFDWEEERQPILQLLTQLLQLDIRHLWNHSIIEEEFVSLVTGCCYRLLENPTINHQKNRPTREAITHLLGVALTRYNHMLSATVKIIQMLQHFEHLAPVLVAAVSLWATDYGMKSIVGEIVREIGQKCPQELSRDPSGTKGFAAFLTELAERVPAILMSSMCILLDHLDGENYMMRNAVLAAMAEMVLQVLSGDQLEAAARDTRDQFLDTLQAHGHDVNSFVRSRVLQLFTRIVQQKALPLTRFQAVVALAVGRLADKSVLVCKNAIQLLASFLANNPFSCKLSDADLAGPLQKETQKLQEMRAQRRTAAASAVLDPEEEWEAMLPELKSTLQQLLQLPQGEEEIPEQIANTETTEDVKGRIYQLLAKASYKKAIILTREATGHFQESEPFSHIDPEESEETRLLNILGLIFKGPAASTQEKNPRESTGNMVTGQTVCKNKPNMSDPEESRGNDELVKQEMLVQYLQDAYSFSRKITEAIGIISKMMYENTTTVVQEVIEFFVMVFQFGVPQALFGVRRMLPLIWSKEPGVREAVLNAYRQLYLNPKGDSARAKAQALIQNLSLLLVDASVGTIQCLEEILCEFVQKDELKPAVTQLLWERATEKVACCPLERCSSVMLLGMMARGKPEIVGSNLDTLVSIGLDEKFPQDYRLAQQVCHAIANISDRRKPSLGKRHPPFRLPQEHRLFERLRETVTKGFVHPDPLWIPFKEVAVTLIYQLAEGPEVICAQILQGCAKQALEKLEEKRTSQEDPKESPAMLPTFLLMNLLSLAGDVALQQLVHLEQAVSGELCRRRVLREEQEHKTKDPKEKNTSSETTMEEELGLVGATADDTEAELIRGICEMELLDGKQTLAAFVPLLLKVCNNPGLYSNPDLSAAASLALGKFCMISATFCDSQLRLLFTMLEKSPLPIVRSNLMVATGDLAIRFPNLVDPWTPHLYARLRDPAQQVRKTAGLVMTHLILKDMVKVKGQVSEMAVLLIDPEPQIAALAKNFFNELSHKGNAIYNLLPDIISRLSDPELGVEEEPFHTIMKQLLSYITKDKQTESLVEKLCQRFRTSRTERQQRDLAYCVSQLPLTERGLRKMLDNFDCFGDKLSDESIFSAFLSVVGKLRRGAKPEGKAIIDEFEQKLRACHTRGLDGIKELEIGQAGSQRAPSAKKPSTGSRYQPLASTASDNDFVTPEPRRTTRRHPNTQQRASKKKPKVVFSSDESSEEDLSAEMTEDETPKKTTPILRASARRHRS
UniProt Q8NC96: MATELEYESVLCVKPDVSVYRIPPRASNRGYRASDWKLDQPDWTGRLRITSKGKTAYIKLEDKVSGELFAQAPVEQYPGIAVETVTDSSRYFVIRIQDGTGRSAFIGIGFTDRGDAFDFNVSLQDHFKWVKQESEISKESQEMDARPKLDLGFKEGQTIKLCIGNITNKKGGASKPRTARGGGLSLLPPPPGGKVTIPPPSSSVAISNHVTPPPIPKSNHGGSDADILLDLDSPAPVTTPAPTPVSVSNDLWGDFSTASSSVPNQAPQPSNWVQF
UniProt Q96I59: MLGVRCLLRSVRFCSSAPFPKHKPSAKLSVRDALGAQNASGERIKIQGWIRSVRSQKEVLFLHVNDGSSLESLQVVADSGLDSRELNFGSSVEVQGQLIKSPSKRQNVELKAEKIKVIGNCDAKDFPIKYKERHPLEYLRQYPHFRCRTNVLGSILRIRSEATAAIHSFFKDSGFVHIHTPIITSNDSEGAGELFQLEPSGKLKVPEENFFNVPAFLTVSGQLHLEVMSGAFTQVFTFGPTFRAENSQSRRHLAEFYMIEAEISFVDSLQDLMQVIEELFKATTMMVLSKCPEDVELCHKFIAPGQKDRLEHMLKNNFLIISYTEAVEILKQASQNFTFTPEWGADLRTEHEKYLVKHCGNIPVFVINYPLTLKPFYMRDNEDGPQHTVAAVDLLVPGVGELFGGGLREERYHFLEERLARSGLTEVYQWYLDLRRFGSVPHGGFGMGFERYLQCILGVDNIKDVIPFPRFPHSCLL
UniProt Q96RE7: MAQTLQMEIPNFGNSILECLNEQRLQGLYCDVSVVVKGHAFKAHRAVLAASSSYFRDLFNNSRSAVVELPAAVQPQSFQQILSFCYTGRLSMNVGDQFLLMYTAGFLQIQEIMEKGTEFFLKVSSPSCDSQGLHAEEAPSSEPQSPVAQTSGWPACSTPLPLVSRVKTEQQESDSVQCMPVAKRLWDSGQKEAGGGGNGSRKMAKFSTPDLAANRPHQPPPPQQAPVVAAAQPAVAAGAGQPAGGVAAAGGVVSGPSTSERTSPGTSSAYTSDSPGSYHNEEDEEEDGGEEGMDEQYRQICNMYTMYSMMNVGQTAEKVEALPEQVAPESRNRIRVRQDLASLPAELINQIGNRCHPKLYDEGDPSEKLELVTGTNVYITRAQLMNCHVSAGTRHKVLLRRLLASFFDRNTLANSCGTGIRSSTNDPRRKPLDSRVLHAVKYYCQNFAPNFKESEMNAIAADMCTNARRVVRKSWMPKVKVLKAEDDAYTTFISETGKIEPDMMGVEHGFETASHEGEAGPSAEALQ
UniProt P56181: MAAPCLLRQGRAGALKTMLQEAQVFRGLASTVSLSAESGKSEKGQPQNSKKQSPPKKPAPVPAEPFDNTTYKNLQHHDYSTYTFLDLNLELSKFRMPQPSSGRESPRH
UniProt O76041: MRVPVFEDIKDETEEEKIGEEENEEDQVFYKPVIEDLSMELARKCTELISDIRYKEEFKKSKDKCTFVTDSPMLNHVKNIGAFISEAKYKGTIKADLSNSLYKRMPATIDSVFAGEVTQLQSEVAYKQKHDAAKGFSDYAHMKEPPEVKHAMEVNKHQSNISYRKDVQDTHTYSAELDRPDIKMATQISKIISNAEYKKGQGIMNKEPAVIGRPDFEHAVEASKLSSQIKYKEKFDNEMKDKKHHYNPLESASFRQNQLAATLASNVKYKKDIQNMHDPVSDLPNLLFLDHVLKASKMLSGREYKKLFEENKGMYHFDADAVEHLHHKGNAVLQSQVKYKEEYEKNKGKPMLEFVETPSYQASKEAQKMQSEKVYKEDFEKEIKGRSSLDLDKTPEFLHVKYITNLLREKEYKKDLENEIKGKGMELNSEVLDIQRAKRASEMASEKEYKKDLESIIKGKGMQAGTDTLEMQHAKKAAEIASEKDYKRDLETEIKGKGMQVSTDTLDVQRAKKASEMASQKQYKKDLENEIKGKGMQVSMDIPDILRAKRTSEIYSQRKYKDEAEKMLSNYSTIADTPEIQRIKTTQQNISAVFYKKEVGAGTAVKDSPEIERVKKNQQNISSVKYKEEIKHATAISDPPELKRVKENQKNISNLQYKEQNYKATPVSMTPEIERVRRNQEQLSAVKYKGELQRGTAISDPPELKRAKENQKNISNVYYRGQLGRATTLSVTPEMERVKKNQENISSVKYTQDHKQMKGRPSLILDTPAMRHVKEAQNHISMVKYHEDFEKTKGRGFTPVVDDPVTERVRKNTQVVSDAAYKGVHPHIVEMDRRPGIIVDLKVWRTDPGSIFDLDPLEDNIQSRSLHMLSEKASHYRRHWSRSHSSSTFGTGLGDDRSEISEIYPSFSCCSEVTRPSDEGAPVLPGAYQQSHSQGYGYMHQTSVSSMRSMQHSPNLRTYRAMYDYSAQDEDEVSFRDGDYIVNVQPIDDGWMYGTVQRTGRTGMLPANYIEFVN
UniProt Q8NI08: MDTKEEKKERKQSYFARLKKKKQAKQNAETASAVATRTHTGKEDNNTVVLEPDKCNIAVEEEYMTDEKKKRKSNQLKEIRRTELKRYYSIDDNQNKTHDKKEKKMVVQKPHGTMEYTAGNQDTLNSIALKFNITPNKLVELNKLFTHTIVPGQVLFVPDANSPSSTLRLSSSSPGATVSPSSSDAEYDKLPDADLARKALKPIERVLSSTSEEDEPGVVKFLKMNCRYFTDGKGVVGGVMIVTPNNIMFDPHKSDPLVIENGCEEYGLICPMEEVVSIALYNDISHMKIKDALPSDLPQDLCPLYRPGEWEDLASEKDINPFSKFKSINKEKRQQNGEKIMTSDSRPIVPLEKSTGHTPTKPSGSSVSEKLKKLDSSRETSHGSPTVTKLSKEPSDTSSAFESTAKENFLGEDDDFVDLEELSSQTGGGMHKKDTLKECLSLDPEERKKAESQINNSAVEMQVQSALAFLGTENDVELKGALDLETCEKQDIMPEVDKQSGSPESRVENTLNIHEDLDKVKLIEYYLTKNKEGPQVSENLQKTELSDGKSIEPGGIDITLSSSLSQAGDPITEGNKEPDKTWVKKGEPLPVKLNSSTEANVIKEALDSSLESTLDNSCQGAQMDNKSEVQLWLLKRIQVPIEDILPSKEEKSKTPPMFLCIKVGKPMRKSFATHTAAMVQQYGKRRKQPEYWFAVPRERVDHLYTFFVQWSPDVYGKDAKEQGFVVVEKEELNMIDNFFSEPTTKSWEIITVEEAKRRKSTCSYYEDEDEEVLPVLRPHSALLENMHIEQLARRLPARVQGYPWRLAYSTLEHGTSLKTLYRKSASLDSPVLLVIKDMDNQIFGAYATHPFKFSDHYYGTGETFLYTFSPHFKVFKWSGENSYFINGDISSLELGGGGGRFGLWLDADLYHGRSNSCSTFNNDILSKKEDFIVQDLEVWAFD

What was measured:
Assay in all cases: log2 fold change, soluble protein after heating vs DMSO (PISA); higher = thermal stabilisation; K562 cells, 10 uM, 30 min; active = over 0.2 and 3.5 SD of the protein, either way, in both replicates (recomputed)
[1] = compound: CC1=C(C=C(C=C1)NC(=O)C2=CC(=CC=C2)C(C)(C)C#N)NC3=CC4=C(C=C3)N=CN(C4=O)C
Method in brief: (§1)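 K562 cells at 2×10^6 cells/mL were given 10 μM compound for 30 min. Aliquots then went through 3 min of heating across 48°C-58°C, were pooled, and were extracted in PBS with 0.5% NP-40 at 4°C, and the supernatant after 21,000xg for 90 min was quantified by TMTpro 16plex LC-MS/MS with channel sums equalised. Thermal stability relative to control samples, from duplicates, is given as log2 fold change.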

[2] = compound: CC1=C(C=C(C=C1)NC(=O)C2=CC(=CC=C2)N(C)C)NC(=O)C3=CC=C(C=C3)O
Method in brief: as §1

[3] = compound: CC1=CC=C(C=C1)SC2=C3C=C(SC3=CN=C2)C(=O)N
Method in brief: as §1

[4] = compound: CC1=NC(=CC=C1)C2=C(N=C(N2)C(C)(C)C)C3=CC4=NC=CN=C4C=C3
Method in brief: as §1

Nexturastat A = compound: CCCCN(Cc1ccc(C(=O)NO)cc1)C(=O)Nc1ccccc1 [Nexturastat A]
Method in brief: as §1

vemurafenib = compound: CCCS(=O)(=O)Nc1ccc(F)c(C(=O)c2c[nH]c3ncc(-c4ccc(Cl)cc4)cc23)c1F [vemurafenib]
Method in brief: as §1

[5] = compound: CCCS(=O)(=O)Nc1ccc(F)c(C(=O)c2c[nH]c3ncc(Cl)cc23)c1F
Method in brief: as §1

[6] = compound: CCCc1cc(C)[nH]c(=O)c1CNC(=O)c1cc(-c2ccnc(N3CCN(C)CC3)c2)cc2c1cnn2C(C)C
Method in brief: as §1

givinostat = compound: CCN(CC)Cc1ccc2cc(COC(=O)Nc3ccc(C(=O)NO)cc3)ccc2c1 [givinostat]
Method in brief: as §1

barasertib = compound: CCN(CCCOc1ccc2c(Nc3cc(CC(=O)Nc4cccc(F)c4)[nH]n3)ncnc2c1)CCOP(=O)(O)O [barasertib]
Method in brief: as §1

[7] = compound: CC[C@@H]1C(=O)N(C)c2cnc(Nc3ccc(C(=O)NC4CCN(C)CC4)cc3OC)nc2N1C1CCCC1
Method in brief: as §1

volasertib = compound: CC[C@@H]1C(=O)N(C)c2cnc(Nc3ccc(C(=O)N[C@H]4CC[C@H](N5CCN(CC6CC6)CC5)CC4)cc3OC)nc2N1C(C)C [volasertib]
Method in brief: as §1

[8] = compound: CC[C@H](C)N1C=C(C2=C(C=C(C=C21)C3=CN=C(C=C3)N4CCNCC4)C(=O)NCC5=C(C=C(NC5=O)C)C)C
Method in brief: as §1

epoxomicin = compound: CC[C@H](C)[C@@H](C(=O)N[C@@H]([C@@H](C)O)C(=O)N[C@@H](CC(C)C)C(=O)[C@]1(CO1)C)NC(=O)[C@H]([C@@H](C)CC)N(C)C(=O)C [epoxomicin]
Method in brief: as §1

[9] = compound: CCn1cc(-c2ccnc3[nH]c(-c4cccc(CN(C)C)c4)cc23)c(-c2ccc(NC(=O)N(C)C)cc2)n1
Method in brief: as §1

[10] = compound: CN(C)CC(=O)Nc1ccc2[nH]c(=O)c3ccccc3c2c1
Method in brief: as §1

[11] = compound: CN1C2=C(C3=C1C(=O)N(N=C3)CC4=CC(=CC=C4)N)SC(=C2)S(=O)C
Method in brief: as §1

[12] = compound: CN1CCC(CNc2ccc3ncc(-c4cccc(OC(F)(F)F)c4)n3n2)CC1
Method in brief: as §1

[13] = compound: CCn1c(C(=O)N(C2CC2)C2CC2)cc2c3c(ncn3C)c(Nc3cc(C)n(C)n3)nc21
Method in brief: as §1

rosiglitazone = compound: CN(CCOC1=CC=C(C=C1)C[C@H]2C(=O)NC(=O)S2)C3=CC=CC=N3 (racemic) [rosiglitazone]
Method in brief: as §1

Row | Target | log2 fold change [1] | log2 fold change [2] | log2 fold change [3] | log2 fold change [4] | log2 fold change (Nexturastat A) | log2 fold change (vemurafenib) | log2 fold change [5] | log2 fold change [6] | log2 fold change (givinostat) | log2 fold change (barasertib) | log2 fold change [7] | log2 fold change (volasertib) | log2 fold change [8] | log2 fold change (epoxomicin) | log2 fold change [9] | log2 fold change [10] | log2 fold change [11] | log2 fold change [12] | log2 fold change [13] | log2 fold change (rosiglitazone)
1 | NDUFS8 (UniProt O00217) | inactive: 0.02 | inactive: 0 | inactive: 0.03 | inactive: 0.018 | inactive: -0.136 | inactive: 0.02 | inactive: -0.006 | inactive: -0.092 | inactive: -0.014 | inactive: -0.004 | inactive: -0.103 | inactive: -0.097 | inactive: -0.005 | inactive: 0.039 | inactive: -0.043 | inactive: 0 | inactive: -0.069 | active: -0.41 | – | –
2 | NAA25 (UniProt Q14CX7) | inactive: 0.018 | inactive: -0.013 | inactive: 0.008 | inactive: 0.032 | inactive: -0.065 | inactive: 0.024 | inactive: 0.007 | inactive: -0.017 | inactive: -0.005 | inactive: 0.009 | inactive: -0.007 | inactive: -0.057 | inactive: 0.019 | inactive: -0.005 | inactive: -0.112 | inactive: 0.004 | inactive: -0.054 | inactive: -0.043 | inactive: -0.019 | inactive: 0.065
3 | NAMPT (UniProt P43490) | inactive: -0.028 | inactive: -0.002 | inactive: 0.011 | inactive: 0.01 | inactive: -0.048 | inactive: -0.005 | inactive: -0.012 | inactive: -0.036 | inactive: 0.015 | inactive: -0.011 | inactive: 0.029 | inactive: 0.035 | inactive: -0.03 | inactive: 0.001 | inactive: -0.029 | inactive: -0.009 | inactive: -0.066 | inactive: 0.008 | inactive: 0.019 | inactive: 0.006
4 | NDUFA5 (UniProt Q16718) | inactive: -0.021 | inactive: -0.048 | inactive: 0.088 | inactive: 0.009 | inactive: 0.088 | inactive: 0.009 | inactive: 0.056 | inactive: -0.076 | inactive: 0.004 | inactive: 0.037 | inactive: 0.041 | inactive: -0.038 | inactive: -0.028 | inactive: 0.144 | inactive: -0.041 | inactive: -0.023 | inactive: -0.051 | inactive: 0.032 | inactive: -0.024 | inactive: -0.022
5 | NAE1 (UniProt Q13564) | inactive: -0.019 | inactive: -0.043 | inactive: 0.008 | inactive: -0.061 | inactive: 0.025 | inactive: 0.03 | inactive: 0.063 | inactive: -0.033 | inactive: 0.003 | inactive: 0.047 | inactive: -0.051 | inactive: -0.074 | inactive: 0.029 | inactive: 0.036 | inactive: -0.094 | inactive: 0.02 | inactive: -0.048 | inactive: -0.124 | inactive: -0.022 | inactive: 0.042
6 | NAP1L1 (UniProt P55209) | inactive: 0.042 | inactive: 0.005 | inactive: -0.002 | inactive: 0.035 | inactive: -0.003 | inactive: 0.04 | inactive: 0.011 | inactive: 0.028 | inactive: -0.08 | inactive: 0.061 | inactive: -0.112 | active: -0.237 | inactive: 0.005 | inactive: 0.048 | inactive: -0.008 | inactive: 0.013 | inactive: 0.003 | inactive: -0.038 | – | –
7 | NCAPD2 (UniProt Q15021) | inactive: 0.057 | inactive: -0.032 | inactive: 0.012 | inactive: -0.013 | inactive: 0.058 | inactive: 0.119 | inactive: 0.041 | inactive: 0.101 | inactive: 0.077 | inactive: 0.03 | inactive: -0.131 | active: -0.486 | inactive: 0.081 | inactive: 0.019 | inactive: 0 | inactive: 0.075 | inactive: 0.044 | inactive: -0.098 | – | –
8 | NAPRT (UniProt Q6XQN6) | inactive: -0.025 | inactive: -0.006 | inactive: -0.011 | inactive: -0.002 | inactive: -0.14 | inactive: -0.019 | inactive: -0.025 | inactive: -0.044 | inactive: -0.085 | inactive: 0.002 | inactive: -0.01 | inactive: 0.084 | inactive: -0.028 | inactive: 0.014 | inactive: 0.002 | inactive: -0.026 | inactive: -0.037 | inactive: -0.056 | inactive: -0.053 | inactive: 0.004
9 | NECAP1 (UniProt Q8NC96) | inactive: -0.008 | inactive: -0.04 | inactive: -0.018 | inactive: 0.021 | inactive: -0.031 | inactive: 0.033 | inactive: 0.013 | inactive: 0.06 | inactive: -0.02 | inactive: -0.033 | inactive: 0.02 | inactive: -0.072 | inactive: 0.058 | inactive: 0.059 | inactive: -0.037 | inactive: -0.022 | inactive: -0.015 | inactive: -0.099 | inactive: 0.009 | inactive: 0.044
10 | NDUFB3 (UniProt O43676) | inactive: 0.015 | inactive: -0.023 | inactive: -0.043 | inactive: 0.006 | inactive: -0.095 | inactive: 0 | inactive: -0.03 | inactive: -0.093 | inactive: -0.014 | inactive: -0.039 | inactive: 0.049 | inactive: 0.057 | inactive: -0.004 | inactive: -0.028 | inactive: 0.041 | inactive: -0.016 | inactive: -0.007 | inactive: 0.007 | inactive: 0.043 | inactive: -0.001
11 | NEDD1 isoform 3 (UniProt Q8NHV4) | inactive: 0.013 | inactive: -0.051 | inactive: -0.074 | inactive: -0.045 | inactive: 0.025 | inactive: -0.022 | inactive: -0.09 | inactive: -0.003 | inactive: 0 | inactive: 0.024 | inactive: 0.045 | inactive: 0.085 | inactive: -0.012 | inactive: -0.019 | inactive: -0.001 | inactive: -0.015 | inactive: 0.011 | inactive: -0.013 | inactive: -0.096 | inactive: 0.053
12 | NARS2 (UniProt Q96I59) | inactive: -0.016 | inactive: 0.002 | inactive: -0.011 | inactive: 0.019 | inactive: -0.071 | inactive: -0.01 | inactive: 0.038 | inactive: -0.033 | inactive: -0.076 | inactive: 0.002 | inactive: -0.021 | inactive: -0.043 | inactive: 0.045 | inactive: 0.048 | inactive: -0.055 | inactive: 0.001 | inactive: -0.034 | inactive: -0.182 | – | –
13 | NACC1 (UniProt Q96RE7) | inactive: -0.043 | inactive: -0.012 | inactive: 0.048 | inactive: 0.164 | inactive: -0.036 | inactive: 0.154 | inactive: 0.064 | inactive: 0.025 | inactive: 0.208 | inactive: 0.115 | inactive: -0.32 | active: -0.616 | inactive: 0.112 | inactive: 0.002 | inactive: -0.022 | inactive: 0.033 | inactive: 0 | inactive: -0.259 | – | –
14 | NDUFV3 (UniProt P56181) | inactive: 0.039 | inactive: -0.004 | inactive: -0.045 | inactive: 0.043 | inactive: 0.012 | inactive: 0.044 | inactive: -0.072 | inactive: 0.037 | inactive: 0.001 | inactive: -0.049 | inactive: 0.008 | inactive: -0.001 | inactive: -0.014 | inactive: 0.045 | – | inactive: 0.04 | inactive: 0.135 | – | inactive: 0.021 | inactive: 0.009
15 | NEBL (UniProt O76041) | inactive: -0.097 | inactive: 0.055 | inactive: 0.016 | inactive: -0.05 | inactive: -0.024 | inactive: -0.04 | inactive: -0.13 | inactive: 0.001 | inactive: 0.15 | inactive: 0.024 | inactive: 0.02 | inactive: 0.031 | inactive: 0.175 | inactive: -0.028 | – | inactive: -0.014 | inactive: 0.135 | – | inactive: -0.031 | inactive: -0.016
16 | NCOA7 (UniProt Q8NI08) | inactive: 0.068 | inactive: -0.045 | inactive: 0.015 | inactive: 0.016 | inactive: 0.012 | inactive: 0.008 | inactive: -0.005 | inactive: 0.024 | inactive: 0.045 | inactive: 0.009 | inactive: -0.035 | active: -0.287 | inactive: 0.124 | inactive: 0.021 | inactive: -0.004 | inactive: -0.002 | inactive: -0.009 | inactive: -0.265 | – | –
17 | NAA38 isoform 2 (UniProt Q9BRA0) | inactive: 0.018 | inactive: 0.041 | inactive: 0.018 | inactive: -0.044 | inactive: 0.052 | inactive: 0.094 | inactive: 0.042 | inactive: -0.129 | inactive: 0.066 | inactive: -0.025 | inactive: -0.045 | inactive: -0.017 | inactive: -0.025 | inactive: 0.029 | inactive: -0.127 | inactive: -0.026 | inactive: -0.095 | inactive: 0.064 | active: 0.265 | –

Not a retest: an excerpt of the list.
Row | Target | log2 fold change [1] | log2 fold change [2] | log2 fold change [3] | log2 fold change [4] | log2 fold change (Nexturastat A) | log2 fold change (vemurafenib) | log2 fold change [5] | log2 fold change [6] | log2 fold change (givinostat) | log2 fold change (barasertib) | log2 fold change [7] | log2 fold change (volasertib) | log2 fold change [8] | log2 fold change (epoxomicin) | log2 fold change [9] | log2 fold change [10] | log2 fold change [11] | log2 fold change [12] | log2 fold change [13] | log2 fold change (rosiglitazone)
11 | NEDD1 isoform 3 (UniProt Q8NHV4) | inactive: 0.013 | inactive: -0.051 | inactive: -0.074 | inactive: -0.045 | inactive: 0.025 | inactive: -0.022 | inactive: -0.09 | inactive: -0.003 | inactive: 0 | inactive: 0.024 | inactive: 0.045 | inactive: 0.085 | inactive: -0.012 | inactive: -0.019 | inactive: -0.001 | inactive: -0.015 | inactive: 0.011 | inactive: -0.013 | inactive: -0.096 | inactive: 0.053
12 | NARS2 (UniProt Q96I59) | inactive: -0.016 | inactive: 0.002 | inactive: -0.011 | inactive: 0.019 | inactive: -0.071 | inactive: -0.01 | inactive: 0.038 | inactive: -0.033 | inactive: -0.076 | inactive: 0.002 | inactive: -0.021 | inactive: -0.043 | inactive: 0.045 | inactive: 0.048 | inactive: -0.055 | inactive: 0.001 | inactive: -0.034 | inactive: -0.182 | – | –
13 | NACC1 (UniProt Q96RE7) | inactive: -0.043 | inactive: -0.012 | inactive: 0.048 | inactive: 0.164 | inactive: -0.036 | inactive: 0.154 | inactive: 0.064 | inactive: 0.025 | inactive: 0.208 | inactive: 0.115 | inactive: -0.32 | active: -0.616 | inactive: 0.112 | inactive: 0.002 | inactive: -0.022 | inactive: 0.033 | inactive: 0 | inactive: -0.259 | – | –
